{"source": "PubChem BioAssay AID2685", "about": "(National Center for Advancing Translational Sciences (NCATS), 2010)", "note": "Screen size: about 320,000 compounds; about 2,100 (0.66%) were called active. This list was built around the results that the source calls inconclusive (neither active nor inactive); the mix of calls is not that of the screen. Calls follow the shape of the dose curve; as a rule, active = well fitted inhibition curve with a large enough effect in the signal ratio, with a control signal flat (not every such curve was filed as active); inconclusive = small, poorly fitted or top-dose-only effect, or effect the other way, or a change in a side signal; inactive = flat fitted curve, though single readings scatter; the % refers to the signal ratio. Potencies of inconclusive entries are doubtful fits and often do not repeat. % is scaled to controls: 0 for no effect and ±100 for the full control effect; potency is read from the fitted curve at half-maximal effect."}
{"assay": "qHTS Assay for Lipid Storage Modulators in Drosophila S3 Cells", "conditions": "BODIPY lipid droplet fluorescence, 18-24 h, cells fed with added oleic acid; lipid storage change, negative = inhibition: at 46.1 µM (top of the series) unless noted", "outline": "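Laser-scanning cytometry quantifies lipid droplet accumulation (500–530 nm total intensity; droplet/cell object ratio) in oleic acid-fed (400 uM added) Drosophila S3 cells treated with a concentration series. 20 uM Triacsin C defined 100% inhibition.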"}
{"smiles": "O=C(CCCCn1c(=O)c2ccccc2n(CC(=O)Nc2ccccc2)c1=O)NCc1ccco1", "Potency": "inconclusive: 29.1 µM [falling, single point]"}
{"smiles": "CCN(CC)C(=O)C(=O)c1cccn1-c1ccc(C#N)cc1", "lipid storage change, negative = inhibition": "inconclusive: -8.5%"}
{"smiles": "CCCCOC(=O)c1ccc(NC(=O)C(=O)NCc2ccncc2)cc1", "lipid storage change, negative = inhibition": "inconclusive: -23.1%"}
{"smiles": "COc1ccc(S(=O)(=O)N2CCN(Cc3ccccc3)CC2)cc1", "Potency": "inconclusive: 0.82 µM [activator, partial curve, poor fit]"}
{"smiles": "[N-]=[N+]=CC(=O)C(c1ccccc1)(c1ccccc1)c1ccccc1", "lipid storage change, negative = inhibition": "inconclusive: 42%"}
{"smiles": "Cc1cccc(NC(=S)N(CCc2ccncc2)C(C)C)c1C", "lipid storage change, negative = inhibition": "inactive: 4.1%"}
{"smiles": "O=C(CCCc1ccccc1)NCCCc1ccccc1", "lipid storage change, negative = inhibition": "inconclusive: -14.2%"}
{"smiles": "O=C(CN1C(=O)CSc2ccc(S(=O)(=O)N3CCCCC3)cc21)NCc1ccccc1", "Potency": "inconclusive: 29.1 µM [activator, single point]"}
{"smiles": "CC(=O)Nc1ccc(C2=CC(=O)C[C@H](c3ccc4c(c3)OCO4)C2)cc1", "Potency": "inconclusive: 0.13 µM [activator, full curve, poor fit]"}
{"smiles": "O=C(N1CCOCC1)C12CC3CC(C1)CC(n1cnc(Cl)n1)(C3)C2", "lipid storage change, negative = inhibition": "inconclusive: -6.85%"}
{"smiles": "CC(=O)N/N=c1\\sc2ccccc2n1C", "lipid storage change, negative = inhibition": "inconclusive: -10.3%"}
{"smiles": "COc1cc2c(cc1NC(=O)C(C)OC(=O)/C=C/c1ccc(OC(F)F)cc1)oc1ccccc12", "note": "(centres undefined)", "lipid storage change, negative = inhibition": "inconclusive: -17.4%"}
{"smiles": "CCCN1CCN(CCCNC(=O)c2ccc(NC(=O)C3=C(C)OCCS3)cc2)CC1", "Potency": "inconclusive: 0.58 µM [activator, single point]"}
{"smiles": "O=C(CCNc1ccc(F)cc1)c1cccc([N+](=O)[O-])c1", "lipid storage change, negative = inhibition": "inconclusive: -0.0724%"}
{"smiles": "O=C1CCCN1c1ccc(Br)cc1", "lipid storage change, negative = inhibition": "inconclusive: -134%"}
{"smiles": "COC(=O)C1=C(C)NC(=O)NC1c1ccc2ccccc2c1", "note": "(centres undefined)", "Potency": "inconclusive: 16.4 µM [activator, partial curve, poor fit]"}
{"smiles": "O=C1CC(c2ccccc2)n2nc(NC(=O)c3cccs3)nc2N1", "note": "(centres undefined)", "lipid storage change, negative = inhibition": "inconclusive: -31%"}
{"smiles": "O=[N+]([O-])c1ccc(CNc2ccc(F)cc2)s1", "Potency": "inconclusive: 6.51 µM [falling, single point]"}
{"smiles": "Cc1sc2ncnc(SCC(=O)N3CCN(C(=O)c4ccco4)CC3)c2c1C", "lipid storage change, negative = inhibition": "inconclusive: 31.4%"}
{"smiles": "COc1cc(C(=O)Nc2ccc3nc4n(c(=O)c3c2)CCCCC4)cc(OC)c1OC", "lipid storage change, negative = inhibition": "inconclusive: -97.7%"}
{"smiles": "CS(=O)(=O)c1ccc(Cl)c(NC(=O)COC(=O)C23CC4CC(CC(C4)C2)C3)c1", "lipid storage change, negative = inhibition": "inconclusive: -7.81%"}
{"smiles": "O=C(C1CCN(S(=O)(=O)c2cnc[nH]2)CC1)N1CCN(c2ncccn2)CC1", "lipid storage change, negative = inhibition": "inconclusive: -102%"}
{"smiles": "COc1ccc(S(=O)(=O)N2CCCC2C(=O)Nc2ccc(C(C)=O)cc2)cc1", "note": "(centres undefined)", "lipid storage change, negative = inhibition": "inactive: 10.3%"}
{"smiles": "Cc1cc(NC(=O)COC(=O)CNS(=O)(=O)c2ccc(C)c(C)c2)no1", "Potency": "inconclusive: 29.1 µM [cytotoxic, single point]"}
{"smiles": "COc1ccc(OC)c(CNC(=O)C2CCCN(C(=O)N(C)C)C2)c1", "note": "(centres undefined)", "Potency": "inconclusive: 1.16 µM [falling, single point]"}
{"smiles": "Nc1nc2cc(S(=O)(=O)NC3=NCCCCC3)ccc2s1", "lipid storage change, negative = inhibition": "inconclusive: -8.55%"}
{"smiles": "COc1ccc(OC)c(NC(=O)CSc2nnnn2C2CCCC2)c1", "lipid storage change, negative = inhibition": "inconclusive: -10.1%"}
{"smiles": "Cc1cc(OCC(=O)OC(C)C(=O)Nc2ccc(N3CCOCC3)cc2)ccc1Cl", "note": "(centres undefined)", "lipid storage change, negative = inhibition": "inconclusive: 17.2%"}
{"smiles": "O=C(NC(=S)NCC1CCCO1)c1ccco1", "note": "(centres undefined)", "Potency": "inconclusive: 18.4 µM [rising, partial curve]"}
{"smiles": "Cc1ccc(S(=O)(=O)N2[C@@H](c3ccccc3)C(C(=O)O)=CC[C@H]2c2cccs2)cc1", "lipid storage change, negative = inhibition": "inconclusive: 10.6%"}
{"smiles": "CCC(=O)N1CCCC(C(=O)c2ccc(-c3ccccc3)cc2)C1", "note": "(centres undefined)", "Potency": "inconclusive: 6.51 µM [activator, single point]"}
{"smiles": "CC(C)NC(=O)CC(=O)NN=C1CCCCC1", "lipid storage change, negative = inhibition": "inconclusive: -12.5%"}
{"smiles": "COc1cc(CN2CCCC(CCC(=O)NCc3ccc(C)o3)C2)cc2c1OCO2", "note": "(centres undefined)", "lipid storage change, negative = inhibition": "inconclusive: 25.6%"}
{"smiles": "CC(=O)c1ccccc1NC(=O)COC(=O)CN1C(=O)C2CCCCC2C1=O", "note": "(centres undefined)", "Potency": "inconclusive: 0.82 µM [activator, full curve]"}
{"smiles": "CCOC(=O)N1CCN(C(=O)C(C)SCc2ccccc2)CC1", "note": "(centres undefined)", "lipid storage change, negative = inhibition": "inconclusive: -6.87%"}
{"smiles": "CCCCSc1nc2c(cnn2-c2ccc(C)c(C)c2)c(=O)[nH]1", "lipid storage change, negative = inhibition": "inconclusive: 4.24%"}
{"smiles": "CC(C)n1c(NCc2ccc(Cl)cc2)nc2ccccc21", "lipid storage change, negative = inhibition": "inconclusive: 17.5%"}
{"smiles": "O=S(=O)(Nc1ccc2c(c1)OCCO2)c1ccc2oc3ccccc3c2c1", "Potency": "inconclusive: 2.31 µM [activator, full curve]"}
{"smiles": "COc1ccc2cc3cc(C(=O)N4CCCCCC4)oc3nc2c1", "lipid storage change, negative = inhibition": "inconclusive: 18.7%"}
{"smiles": "COc1ccc(C(=O)Oc2cc(OC)cc(OC)c2C(C)=O)cc1", "lipid storage change, negative = inhibition": "inconclusive: 30.3%"}
{"smiles": "CCCCOc1ccc(-n2nc(C)cc2C)nn1", "Potency": "inconclusive: 1.84 µM [activator, full curve]"}
{"smiles": "CC(C)n1cnnc1SCC(=O)Nc1cccc(S(=O)(=O)N(C)c2ccccc2)c1", "lipid storage change, negative = inhibition": "inactive: -18.9%"}
{"smiles": "Cc1ccc(NCC(O)C(O)C(O)CO)c(N=Nc2ccccc2)c1C", "note": "(centres undefined)", "Potency": "inconclusive: 14.6 µM [falling, single point]"}
{"smiles": "O=C(NNC(=O)c1ccc(S(=O)(=O)N2CCOCC2)cc1)c1ccccc1", "lipid storage change, negative = inhibition": "inconclusive: -9.29%"}
{"smiles": "CCc1cc(C(c2ccc(F)cc2)N2CCOCC2)c(NC(=O)c2ccccc2)s1", "note": "(centres undefined)", "lipid storage change, negative = inhibition": "inconclusive: 31.4%"}
{"smiles": "COc1ccc(CCn2c(=N)c(C(=O)N3CCN(C)CC3)cc3c(=O)n4ccccc4nc32)cc1", "lipid storage change, negative = inhibition": "inconclusive: -11.7% [at 9.22 µM]"}
{"smiles": "Cc1ccc(CNC(=O)CCCN2C(=S)NC(C)(C)CC2C)cc1", "note": "(centres undefined)", "lipid storage change, negative = inhibition": "inconclusive: -8.58%"}
{"smiles": "Cc1ccc(C)c(NC(=O)COC(=O)CCC(=O)c2cccs2)c1", "lipid storage change, negative = inhibition": "inconclusive: -53.4%"}
{"smiles": "CS(=O)(=O)N(CC(=O)O)c1ccc(C23CC4CC(CC(C4)C2)C3)cc1", "lipid storage change, negative = inhibition": "inconclusive: -31.1%"}
